From article doi:10.1101/253815
Results are given in words; binding and its absence hold for the method and conditions named. Some entries that bind do so weakly or less than the wild type.

Amino acid sequences for entries named in this document (tags omitted).
UniProt Q9FHA2: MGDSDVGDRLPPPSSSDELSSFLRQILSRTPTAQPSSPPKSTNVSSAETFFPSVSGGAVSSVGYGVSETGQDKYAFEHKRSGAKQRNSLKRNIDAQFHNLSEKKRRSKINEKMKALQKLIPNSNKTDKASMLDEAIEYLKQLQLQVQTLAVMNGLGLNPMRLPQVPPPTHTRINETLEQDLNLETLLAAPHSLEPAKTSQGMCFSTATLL

Molecular target: T1, HECATE1 (HEC1), bait from pGBKT7-HEC1 (Arabidopsis thaliana) (UniProt Q9FHA7)
T1 sequence: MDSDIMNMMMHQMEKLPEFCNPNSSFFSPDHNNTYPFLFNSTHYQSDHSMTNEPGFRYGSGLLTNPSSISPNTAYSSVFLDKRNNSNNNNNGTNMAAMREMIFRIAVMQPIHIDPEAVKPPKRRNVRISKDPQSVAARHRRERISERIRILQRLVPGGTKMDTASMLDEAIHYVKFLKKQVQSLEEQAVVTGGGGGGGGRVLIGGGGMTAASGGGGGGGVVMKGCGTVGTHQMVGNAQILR
Experiment: two-hybrid

## ALCATRAZ (ALC), prey from pGADT7-ALC (from UniProt Q9FHA2 1-210)
  binding: binds
